From article PMC10097598, “Cryo-EM structure of the transposon-associated TnpB enzyme”
No constants are given. Whether binding was seen depends on the method and setting.

Target: TnpB from Deinococcus radiodurans ISDra2 (Deinococcus radiodurans) (UniProt Q7DF80)
Assay: cryo-EM structure; TnpB–ωRNA–target DNA ternary complex, purified on Superdex 200 Increase in 20 mM Tris-HCl pH 8.0, 150 mM NaCl, 2 mM MgCl2, 10 μM ZnCl2, 1 mM DTT; 0.5 mg/ml on grids; both purified

B1: TnpB from Deinococcus radiodurans ISDra2 (enzyme, UniProt Q7DF80 1-408)
chain: MIRNKAFVVRLYPNAAQTELINRTLGSARFVYNHFLARRIAAYKESGKGLTYGQTSSELTLLKQAEETSWLSEVDKFALQNSLKNLETAYKNFFRTVKQSGKKVGFPRFRKKRTGESYRTQFTNNNIQIGEGRLKLPKLGWVKTKGQQDIQGKILNVTVRRIHEGHYEASVLCEVEIPYLPAAPKFAAGVDVGIKDFAIVTDGVRFKHEQNPKYYRSTLKRLRKAQQTLSRRKKGSARYGKAKTKLARIHKRIVNKRQDFLHKLTTSLVREYEIIGTEHLKPDNMRKNRRLALSISDAGWGEFIRQLEYKAAWYGRLVSKVSPYFPSSQLCHDCGFKNPEVKNLAVRTWTCPNCGETHDRDENAALNIRREALVAAGISDTLNAHGGYVRPASAGNGLRSENHATLVV
- binding: no binding
